The results in this text go back to PMC4638101.

Test [1] addresses T1, CP190, endogenous in S2 cells (Drosophila (endogenous in S2 cells)) (UniProt Q24478).
T1 sequence: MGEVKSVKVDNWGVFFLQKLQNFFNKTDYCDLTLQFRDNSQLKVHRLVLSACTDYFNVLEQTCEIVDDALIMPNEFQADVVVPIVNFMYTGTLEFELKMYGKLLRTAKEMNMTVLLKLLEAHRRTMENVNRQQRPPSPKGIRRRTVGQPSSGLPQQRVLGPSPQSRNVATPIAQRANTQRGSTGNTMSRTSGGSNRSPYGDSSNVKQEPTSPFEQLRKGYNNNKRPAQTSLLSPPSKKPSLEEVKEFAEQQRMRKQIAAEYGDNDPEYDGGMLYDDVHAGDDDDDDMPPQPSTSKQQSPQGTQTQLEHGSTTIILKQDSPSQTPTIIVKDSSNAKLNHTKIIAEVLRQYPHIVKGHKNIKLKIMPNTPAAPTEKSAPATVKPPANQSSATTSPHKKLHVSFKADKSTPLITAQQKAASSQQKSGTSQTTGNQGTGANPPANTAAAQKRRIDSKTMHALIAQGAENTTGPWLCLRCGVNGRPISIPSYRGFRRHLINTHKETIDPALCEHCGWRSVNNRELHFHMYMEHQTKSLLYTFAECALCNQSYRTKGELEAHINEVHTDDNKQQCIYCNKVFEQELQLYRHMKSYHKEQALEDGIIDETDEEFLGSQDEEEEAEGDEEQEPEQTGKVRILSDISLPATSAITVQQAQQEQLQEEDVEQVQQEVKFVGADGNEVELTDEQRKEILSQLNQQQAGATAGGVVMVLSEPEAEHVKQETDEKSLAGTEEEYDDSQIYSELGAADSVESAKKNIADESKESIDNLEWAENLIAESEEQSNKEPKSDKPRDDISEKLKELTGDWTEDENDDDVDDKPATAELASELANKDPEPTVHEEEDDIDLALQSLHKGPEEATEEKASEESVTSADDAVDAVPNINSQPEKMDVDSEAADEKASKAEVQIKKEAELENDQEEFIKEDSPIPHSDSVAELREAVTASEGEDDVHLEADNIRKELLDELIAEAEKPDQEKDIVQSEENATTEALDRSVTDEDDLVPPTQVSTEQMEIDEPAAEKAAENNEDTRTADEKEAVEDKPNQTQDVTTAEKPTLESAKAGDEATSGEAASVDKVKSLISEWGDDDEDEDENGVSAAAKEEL
Put plainly: co-IP; S2 cells transfected with FLAG-tagged EAST variants; precipitation with antibodies raised to Su(Hw), Mod(mdg4)-67.2 or CP190 (endogenous proteins), blot for FLAG.

The target in test [2] is T2, Mod(mdg4)-67.2, endogenous in S2 cells (Drosophila (endogenous in S2 cells)) (UniProt Q86B87).
T2 sequence: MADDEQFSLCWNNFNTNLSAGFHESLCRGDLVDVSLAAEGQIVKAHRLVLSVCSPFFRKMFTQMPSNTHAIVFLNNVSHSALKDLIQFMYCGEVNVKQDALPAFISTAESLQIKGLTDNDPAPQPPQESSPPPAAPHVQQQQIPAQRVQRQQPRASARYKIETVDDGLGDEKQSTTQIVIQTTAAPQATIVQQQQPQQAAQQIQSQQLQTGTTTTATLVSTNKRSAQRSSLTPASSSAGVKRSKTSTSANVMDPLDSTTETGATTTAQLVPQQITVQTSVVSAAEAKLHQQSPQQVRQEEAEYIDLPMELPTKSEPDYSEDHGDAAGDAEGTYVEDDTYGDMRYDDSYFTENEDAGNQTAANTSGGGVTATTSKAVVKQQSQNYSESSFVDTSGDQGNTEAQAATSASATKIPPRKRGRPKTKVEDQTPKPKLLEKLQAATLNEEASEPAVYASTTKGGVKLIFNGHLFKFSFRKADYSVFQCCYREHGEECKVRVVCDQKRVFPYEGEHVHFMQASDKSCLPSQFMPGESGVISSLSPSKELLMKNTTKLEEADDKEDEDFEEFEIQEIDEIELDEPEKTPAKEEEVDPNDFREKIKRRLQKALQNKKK
The test is described as above.

Another test concerns the target T3, CP190-V5 (Drosophila) (UniProt Q24478).
T3 sequence: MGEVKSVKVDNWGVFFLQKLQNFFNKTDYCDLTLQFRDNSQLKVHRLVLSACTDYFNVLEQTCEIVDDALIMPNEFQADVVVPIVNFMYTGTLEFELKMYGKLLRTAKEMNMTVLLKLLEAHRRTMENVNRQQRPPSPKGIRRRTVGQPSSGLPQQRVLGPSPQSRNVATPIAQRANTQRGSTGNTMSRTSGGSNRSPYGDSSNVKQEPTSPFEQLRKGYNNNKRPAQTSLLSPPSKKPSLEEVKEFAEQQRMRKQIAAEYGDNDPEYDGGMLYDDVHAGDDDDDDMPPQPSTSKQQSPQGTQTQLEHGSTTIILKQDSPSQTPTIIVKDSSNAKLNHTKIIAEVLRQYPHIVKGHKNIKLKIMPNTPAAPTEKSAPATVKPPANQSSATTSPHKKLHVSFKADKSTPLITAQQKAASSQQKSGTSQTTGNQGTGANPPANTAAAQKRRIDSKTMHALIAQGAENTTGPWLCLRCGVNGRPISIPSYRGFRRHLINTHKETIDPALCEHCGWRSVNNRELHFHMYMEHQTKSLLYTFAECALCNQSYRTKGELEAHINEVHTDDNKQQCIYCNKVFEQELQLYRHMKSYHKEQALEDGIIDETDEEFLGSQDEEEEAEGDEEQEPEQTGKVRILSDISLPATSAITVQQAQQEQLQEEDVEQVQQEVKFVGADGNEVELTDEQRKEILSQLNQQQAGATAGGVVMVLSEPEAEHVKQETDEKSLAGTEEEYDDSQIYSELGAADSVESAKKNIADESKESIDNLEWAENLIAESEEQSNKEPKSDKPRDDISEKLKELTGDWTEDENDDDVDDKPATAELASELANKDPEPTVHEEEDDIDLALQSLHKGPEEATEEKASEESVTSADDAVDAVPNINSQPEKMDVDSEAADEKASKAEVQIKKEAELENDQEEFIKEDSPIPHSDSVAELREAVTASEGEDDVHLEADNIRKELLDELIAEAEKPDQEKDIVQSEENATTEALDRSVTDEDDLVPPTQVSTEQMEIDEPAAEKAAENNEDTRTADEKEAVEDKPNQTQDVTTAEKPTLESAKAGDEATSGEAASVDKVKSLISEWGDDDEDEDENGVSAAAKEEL
Description: co-IP; S2 cells coexpressing a FLAG-tagged EAST variant and a V5-tagged insulator protein; precipitation with anti-V5, blot for FLAG.

The target in test [3] is T4, Mod(mdg4)-67.2-V5 (Drosophila) (UniProt Q86B87).
T4 sequence: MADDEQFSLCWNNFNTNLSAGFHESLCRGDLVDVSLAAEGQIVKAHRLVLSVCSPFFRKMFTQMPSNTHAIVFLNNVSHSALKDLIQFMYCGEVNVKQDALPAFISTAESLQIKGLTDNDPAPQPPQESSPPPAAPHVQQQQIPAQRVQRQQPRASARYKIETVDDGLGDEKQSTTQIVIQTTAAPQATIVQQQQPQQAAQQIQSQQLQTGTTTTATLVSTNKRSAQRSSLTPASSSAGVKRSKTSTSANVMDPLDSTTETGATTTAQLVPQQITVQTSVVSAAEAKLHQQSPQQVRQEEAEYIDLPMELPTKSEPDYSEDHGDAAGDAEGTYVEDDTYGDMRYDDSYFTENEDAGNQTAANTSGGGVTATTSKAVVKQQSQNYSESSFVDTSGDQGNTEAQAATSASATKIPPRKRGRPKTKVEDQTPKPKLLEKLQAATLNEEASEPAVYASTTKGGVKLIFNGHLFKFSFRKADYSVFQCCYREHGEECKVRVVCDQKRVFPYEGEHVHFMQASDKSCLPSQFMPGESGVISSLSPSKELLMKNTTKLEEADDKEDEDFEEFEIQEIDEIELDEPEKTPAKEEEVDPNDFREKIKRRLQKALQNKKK
The description is as above.

In test [4] the target is EAST^1-933 (yeast two-hybrid fusion) (Drosophila). Description: two-hybrid; yeast pJ694A; fusions to GAL4-activating or DNA-binding domains; growth at 30°C on media without tryptophan, leucine, histidine and adenine (high stringency) or without tryptophan, leucine, histidine and with 5 mM 3-aminotriazole (medium stringency).
Test [5] concerns the target EAST^933-1995 (yeast two-hybrid fusion) (Drosophila) (UniProt Q9NGR9). The test is described as above.
The target of test [6] is EAST^1-1995 (yeast two-hybrid fusion) (Drosophila). The description is as above.
Test [7] concerns the target EAST^933-2362 (yeast two-hybrid fusion) (Drosophila). The test is described as above.
In test [8] the target is EAST^1995-2362 (yeast two-hybrid fusion) (Drosophila). Described as above.

No constants are given. Whether binding was seen depends on the method and setting. For some assays here: Binding seen in cells or lysates may run through a third protein. For some assays here: A result given as binding can be weak or reduced; the word gives no strength. For some assays here: Tags and fused reporters may be left off the sequences shown.

Take “EAST^1-1995-FLAG (Drosophila) (domain or fragment)”: the binding entry (in [1]; in test [2]; in the test with CP190-V5 (Drosophila); in [3]) was “binds” in each case.
As to “EAST tagged with a triple FLAG epitope (EAST-FLAG), full length (Drosophila)”, the binding result (in [1]; in [2]; with CP190-V5 (Drosophila); in test [3]) was “binds” in each case.
With “EAST^933-2362-FLAG (Drosophila) (domain or fragment)”, the binding entry (in test [1]; in [2]; with CP190-V5 (Drosophila); in test [3]) was “binds” in each case.

B1: Su(Hw) (yeast two-hybrid fusion) (protein, UniProt P08970 1-941)
chain: MSASKEGKEKKGKLLGVENISPPKDKRPATRMKLLNDVGAGEDSEASTTTTTSRTPSNKQEKRGSVAGSRIKILNEEILGTPKTEKRGATKSTAPAASTVKILNEKKTPSATVTAVETTKIKTSPSKRKKMEHYVLQAVKSENTKADTTVTVVTEEDDTIDFILADDEEVVPGRIENNNGQEIVVTEDDEDLGEDGDEDGEDSSGKGNSSQTKIKEIVEHVCGKCYKTFRRVQSLKKHLEFCRYDSGYHLRKADMLKNLEKIEKDAVVMEKKDICFCCSESYDTFHLGHINCPDCPKSFKTQTSYERHIFITHSEFSDFPCSICNANLRSEALLALHEEQHKSRGKPYACKICGKDFTRSYHLKRHQKYSSCSSNETDTMSCKVCDRVFYRLDNLRSHLKQHLGTQVVKKPEYMCHTCKNCFYSLSTLNIHIRTHTGEKPFDCDLCDKKFSALVALKKHRRYHTGEKPYSCTVCNQAFAVKEVLNRHMKRHTGERPHKCDECGKSFIQATQLRTHSKTHIRPFPCEQCDEKFKTEKQLERHVKTHSRTKRPVFSCAECKRNFRTPALLKEHMDEGKHSPKQQRSSMRSAVKIMERTDCAICDKNFDSSDTLRRHIRTVHECDPDDIFGVEPHPSKRAKKDIESEEVVPVALNTSAGSLISSQTDGNGVVVREFLVDEGDGAAQTITLENETYTILPLDGAIEGEQLTDEAGVKPEAKKEEAQVSPVVKKEQRKSLAASLAAAIADNLEESCSEDDFSGEILTEEDIKLKENVGKLIDMLVDPPILKKYGWPNAPEETVLCKVIENCGHDLTKGGENYAELDYGSRMREYCKLLFTVVIHNDSIKSLLNNFPIDDVIEYVLGDEDQDEGGLDKDNESHSGDEEAVSVTGETKTNEIREKPEKKEVSAKSEKKEIVGKAVDKDNSEEVVRENKKKPVGEQEKA
Regarding B1, the binding entry in test [4], in test [5], in test [6], in test [7] and in test [8] was “no binding” throughout.
